Results as given in publication doi:10.1101/2024.05.06.590709 (bioRxiv, 2024).
No constants are given. Whether binding was seen depends on the method and setting. In cells and extracts the contact can be indirect. A yes stands for co-enrichment or nearness to the bait. Other partners may have been found.

Amino acid sequences for entries named in this document (tags omitted). Residues count along the entry.
UniProt Q8S926, residues 1-118: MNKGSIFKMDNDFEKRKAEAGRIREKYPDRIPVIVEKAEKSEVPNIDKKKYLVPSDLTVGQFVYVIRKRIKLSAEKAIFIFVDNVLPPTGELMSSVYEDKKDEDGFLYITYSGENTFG

How the values were obtained:
Assay in all cases: affinity purification with mass spectrometry
[1] = molecular target: mCherry-ATG8E (Arabidopsis thaliana) (UniProt Q8S926)
[2] = molecular target: T1, mCherry-ATG8A (Arabidopsis thaliana) (UniProt Q8LEM4)
T1 sequence: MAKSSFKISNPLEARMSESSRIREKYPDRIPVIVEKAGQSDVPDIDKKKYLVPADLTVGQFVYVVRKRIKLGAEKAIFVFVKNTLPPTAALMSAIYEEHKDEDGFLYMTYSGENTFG

[3] = molecular target: T2, NIT1-Clover (Arabidopsis thaliana) (UniProt P32961)
T2 sequence: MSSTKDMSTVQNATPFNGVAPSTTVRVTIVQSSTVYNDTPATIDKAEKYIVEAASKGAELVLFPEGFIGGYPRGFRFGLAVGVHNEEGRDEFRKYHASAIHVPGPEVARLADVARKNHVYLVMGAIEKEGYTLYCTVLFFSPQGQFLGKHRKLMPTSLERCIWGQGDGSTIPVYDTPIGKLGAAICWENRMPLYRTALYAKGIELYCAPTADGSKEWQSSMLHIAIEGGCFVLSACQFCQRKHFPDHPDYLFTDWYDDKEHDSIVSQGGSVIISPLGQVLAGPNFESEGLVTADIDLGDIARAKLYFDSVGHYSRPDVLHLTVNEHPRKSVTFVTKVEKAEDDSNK

[4] = molecular target: T3, IMPDH1-Clover (Arabidopsis thaliana) (UniProt P47996)
T3 sequence: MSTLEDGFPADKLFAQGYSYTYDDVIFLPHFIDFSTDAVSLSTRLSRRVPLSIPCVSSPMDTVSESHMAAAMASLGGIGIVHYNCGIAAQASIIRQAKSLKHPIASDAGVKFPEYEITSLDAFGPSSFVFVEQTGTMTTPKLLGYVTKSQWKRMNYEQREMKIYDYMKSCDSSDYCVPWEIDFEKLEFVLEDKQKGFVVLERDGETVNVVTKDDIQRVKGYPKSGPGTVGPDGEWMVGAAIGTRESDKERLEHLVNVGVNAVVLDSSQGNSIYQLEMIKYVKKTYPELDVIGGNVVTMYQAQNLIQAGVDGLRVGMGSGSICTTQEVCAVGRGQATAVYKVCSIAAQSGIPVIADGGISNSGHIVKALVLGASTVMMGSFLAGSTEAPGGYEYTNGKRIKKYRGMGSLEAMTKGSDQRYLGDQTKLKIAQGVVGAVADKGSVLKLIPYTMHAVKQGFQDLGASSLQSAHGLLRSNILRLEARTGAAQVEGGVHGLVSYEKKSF

B1: Nitrilase1 (NIT1, AT3G44310), endogenous (enzyme, UniProt P32961 1-346)
chain: T2 sequence
- binding [1]: binds
- binding [2]: binds

B2: ATG8A (detected by mass spectrometry in the Clover affinity purifications) (protein, UniProt Q8LEM4 1-117)
chain: T1 sequence
- binding [3]: binds
- binding [4]: binds

B3: ATG7 (protein, UniProt Q94CD5 1-697)
chain: MAEKETPAIILQFAPLNSSVDEGFWHSFSSLKLDKLGIDDSPISITGFYGPCGHPQVSNHLTLLSESLPLDEQSLIASTSHGNRNKCPVPGILYNTNTVESFNKLDKQSLLKAEANKIWEDIQSGKALEDPSVLPRFLVISFADLKKWSFRYWFAFPAFVLDPPVSLIELKPASEYFSSEEAESVSAACNDWRDSDLTTDVPFFLVSVSSDSKASIRHLKDLEACQGDHQKLLFGFYDPCHLPSNPGWPLRNYLALIRSRWNLETVWFFCYRESRGFADLNLSLVGQASITLSSGESAETVPNSVGWELNKGKRVPRSISLANSMDPTRLAVSAVDLNLKLMRWRALPSLNLNVLSSVKCLLLGAGTLGCQVARTLMGWGIRNITFVDYGKVAMSNPVRQSLYNFEDCLGRGEFKAVAAVKSLKQIFPAMETSGVVMAIPMPGHPISSQEEDSVLGDCKRLSELIESHDAVFLLTDTRESRWLPSLLCANANKIAINAALGFDSYMVMRHGAGPTSLSDDMQNLDINKTNTQRLGCYFCNDVVAPQDSMTDRTLDQQCTVTRPGLAPIAGALAVELLVGVLQHPLGINAKGDNSSLSNTGNNDDSPLGILPHQIRGSVSQFSQITLLGQASNSCTACSETVISEYRERGNSFILEAINHPTYLEDLTGLTELKKAANSFNLDWEDDDTDDDDVAVDL
- binding [1]: binds
- binding [2]: binds

B4: NIT3, endogenous (enzyme, UniProt P46010 1-346)
chain: MSSTEEMSSVKNTTQVIGVDPSSTVRVTIVQSSTVYNDTPATLDKAEKFIVEAASKGAKLVLFPEAFIGGYPRGFRFGLAVGVHNEEGRDEFRNYHASAIKVPGPEVERLAELAGKNNVHLVMGAIEKDGYTLYCTALFFSPQGQFLGKHRKVMPTSLERCIWGQGDGSTIPVYDTPIGKIGAAICWENRMPLYRTALYAKGIEIYCAPTADYSLEWQASMIHIAVEGGCFVLSAHQFCKRREFPEHPDYLFNDIVDTKEHDPTVSGGGSVIISPLGKVLAGPNYESEGLVTADLDLGDIARAKLYFDVVGHYSKPDIFNLTVNEHPKKPVTFMTKVEKAEDESNK
- binding [3]: binds

B5: Inosine Monophosphate Dehydrogenase1 (IMPDH1, AT1G79470), endogenous (enzyme, UniProt P47996 1-503)
chain: T3 sequence
- binding [1]: binds
- binding [2]: binds
- binding [3]: binds

B6: NIT2, endogenous (enzyme, UniProt P32962 1-339)
chain: MSTSENTPFNGVASSTIVRATIVQASTVYNDTPATLEKANKFIVEAASKGSELVVFPEAFIGGYPRGFRFGLGVGVHNEEGRDEFRKYHASAIKVPGPEVEKLAELAGKNNVYLVMGAIEKDGYTLYCTALFFSPQGQFLGKHRKLMPTSLERCIWGQGDGSTIPVYDTPIGKLGAAICWENRMPLYRTALYAKGIELYCAPTADGSKEWQSSMLHIAIEGGCFVLSACQFCLRKDFPDHPDYLFTDWYDDKEPDSIVSQGGSVIISPLGQVLAGPNFESEGLITADLDLGDVARAKLYFDSVGHYSRPDVLHLTVNEHPKKPVTFISKVEKAEDDSNK
- binding [3]: binds

B7: IMPDH2, endogenous (enzyme, UniProt Q9SA34 1-502)
chain: MSGFEDGFSAEKLFSQGYSYTYDDVIFLPHFIDFSTDAVSLSTRLSKRVPLSIPCVASPMDTVSESHMAAAMAALGGIGIVHYNCDIDTQASVIRHAKSLQVPIASDAVFKCPEHQIGSVDDFGPSSFVFVSQTGTLTPKLLGYVSKSEWSSMKDDQKEVKIYDYMKSCENKDYYVPWDIDLDKIEAVLEDKQKGFVVLEKEGETVNVVTKDDVERVKGYPKLGSGTVGADKKWMVGAAIGTRESDKERLEHLVKAGANVVVLDSSQGNSIYQLEMIKYVKNTYPELDVVGGNVVTMYQAENLIKAGVDGLRVGMGSGSICTTQEVCAVGRGQATAVYKVSTLAAQHGVPVIADGGISNSGHIVKALVLGASTVMMGSFLAGSTEAPGAYEYRNGRRVKKYRGMGSLEAMTKGSDQRYLGDTAKLKIAQGVVGAVADKGSVLKFIPYTMHAVKQGFQDLGASSLQSAHELLRDNTLRLEARTGAAQIEGGIHGLVSYEKKSF
- binding [3]: binds
- binding [4]: binds
